Entries after “also recorded” stand apart in the source; their conditions may differ. For at least one compound, name, drawing or mass did not settle the structure.
How the values were obtained:
[1] = system: LC3-II protein; test: LC3-II protein level in SH-SY5Y cells with or without bafilomycin A1; assay type: cell-based, human; conditions: 100 nM in the presence of bafilomycin A1
Experimental: The observed increase in LC3-positive autophagosomes could result, in principle, from either an increased flux through the autophagy pathway or decreased autophagosome degradation (Pankiv, S., et al. J Biol Chem 282, 24131-24145 (2007); Kamada, Y., et al. J Cell Biol 150, 1507-1513 (2000)). […] In order to ascertain an increase in autophagic flux, cells were co-treated with LNK-754-TS and an inhibitor of autophagosome-lysosome fusion, bafilomycin A1 (10 nM). Bafilomycin treatment alone caused a 100% increase in the amount of LC3-II, consistent with the fact that it inhibits autophagosome degradation (FIG. 8c).

[2] = system: LC3-positive puncta (autophagosomes); test: LC3 immunostaining (LC3-positive puncta) in SH-SY5Y cells; assay type: cell-based, human; conditions: 1 μM, SH-SY5Y (FIG. 8b)
Experimental: (§1) Cell culture and immunocytochemistry: SH-SY5Y cells were grown in DMEM medium supplemented with 10% FBS and 1% pen/strep at 37° C. and 5% CO2. Cells were differentiated with 10 μM retinoic acid for 48 hr, then treated with the either rapamycin (100 nM or 1 μM) or with 100 nM of either LNK-754-TS or Tipifarnib for 48-72 hr. Cells were then fixed with 4% paraformaldehyde and stained for LC3 (Novus biological, NB100-2331, dilution 1:800) followed by secondary Alexa-564 anti-Rabbit (A-11011).
Autophagy was measured in a neuroblastoma cell culture system by three distinct approaches: quantitation of autophagy-related mRNA's, immunofluorescence microscopy of autophagosomes, and biochemical detection of the microtubule-associated protein 1 light chain 3 (LC3) a key protein that is required for autophagosome formation. Differentiated human neuroblastoma cells (SH-SY5Y) were treated for 72 hr with LNK-754-TS (0.01-100 nM), Zarnestra® (also referred to herein as tipifarnib) (100 nM) or rapamycin (1 μM).

[3] = system: autophagy-related gene transcripts; test: mRNA of autophagy-related genes (Atg1, p62) in SH-SY5Y cells; assay type: cell-based, human; conditions: 1 μM, SH-SY5Y (FIG. 8d)
Experimental: (§2) Quantitative real-time PCR: Gene expression profiles were done by qPCR on series of known autophagy genes. RNA was extracted with Tri-reagent (Sigma), and cDNAs generated using iScript (Biorad). qPCR analysis was carried out in a 96 well plate using an iCycler (BioRad, Hercules, Calif.), and iQ SYBR Green Supermix (Biorad) according to the manufacturer's specifications.
Rapamycin is a well-characterized autophagy stimulator that acts through inhibition of mTOR, a kinase involved in nutrient signaling and regulation of cell growth and survival.

[4] = system: INS1 cells; conditions: cited from earlier work
[5] = system: LC3 mRNA; test: LC3 mRNA (qPCR) in SH-SY5Y cells; assay type: cell-based, human; conditions: 1 μM, 72 hr
Experimental: as §1, §2
Such increases in LC3 mRNA levels are associated in the literature with stimulation of macroautophagy. […]
Autophagy was measured in a neuroblastoma cell culture system by three distinct approaches: quantitation of autophagy-related mRNA's, immunofluorescence microscopy of autophagosomes, and biochemical detection of the microtubule-associated protein 1 light chain 3 (LC3) a key protein that is required for autophagosome formation. […]

SMILES: CO[C@H]1C[C@@H]2CC[C@@H](C)[C@@](O)(O2)C(=O)C(=O)N2CCCC[C@H]2C(=O)O[C@H]([C@H](C)C[C@@H]2CC[C@@H](O)[C@H](OC)C2)CC(=O)[C@H](C)/C=C(\C)[C@@H](O)[C@@H](OC)C(=O)[C@H](C)C[C@H](C)/C=C/C=C/C=C/1C [rapamycin]
- LC3-II protein levels [1]: increased LC3-II protein levels
- number of LC3-positive puncta [2]: distinct increase; also recorded: increased
- transcript encoding Atg1 [3]: caused an increase; also recorded: causes upregulation
- protection from the toxic effect of palmitate [4]: protect cells from the toxic effect of palmitate
- LC3 mRNA [5]: upregulated; also recorded: increased
- LC3 mRNA ([5]; listed as Rapamycin): positive control

Reference: patent US20100331363A1, “TREATMENT OF MITOCHONDRIAL DISORDERS USING A FARNESYL TRANSFERASE INHIBITOR” (Link Medicine Corporation, priority 2008, published 2010)
